Results reported in article PMC6762210.
Results are given in words; binding and its absence hold for the method and conditions named. In cells and extracts the contact can be indirect. Here binding means that the protein was enriched with, or labelled near, the bait; the list need not be complete. Sequences can lack the tags named with a protein.

Sequences of proteins named here, by UniProt entry; tags and fusion partners are left off.
UniProt Q4WER3: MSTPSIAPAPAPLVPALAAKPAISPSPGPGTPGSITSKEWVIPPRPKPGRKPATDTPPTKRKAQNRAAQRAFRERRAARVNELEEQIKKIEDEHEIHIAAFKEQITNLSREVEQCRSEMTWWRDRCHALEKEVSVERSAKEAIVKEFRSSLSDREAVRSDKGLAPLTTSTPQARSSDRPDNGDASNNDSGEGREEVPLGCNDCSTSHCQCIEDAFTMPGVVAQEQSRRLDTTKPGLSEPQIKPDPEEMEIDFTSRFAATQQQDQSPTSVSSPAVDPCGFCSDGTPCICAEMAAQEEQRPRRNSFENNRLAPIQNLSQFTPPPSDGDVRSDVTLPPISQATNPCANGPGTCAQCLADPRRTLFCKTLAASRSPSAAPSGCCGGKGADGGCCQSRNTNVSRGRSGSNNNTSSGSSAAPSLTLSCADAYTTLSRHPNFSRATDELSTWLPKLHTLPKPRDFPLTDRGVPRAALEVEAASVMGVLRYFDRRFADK

Each substance was assayed against T1, GrxD^Venus (full-length A. fumigatus monothiol glutaredoxin GrxD, C-terminally tagged with Venus) (A. fumigatus) (UniProt Q4X024) (assay: affinity purification with mass spectrometry; GFP-Trap agarose beads on mycelial crude extracts of A. fumigatus PxylP:grxD^venus or PxylP:grxD^venusΔtrx grown at -Fe, 0.03 mM Fe or 5 mM Fe (22 h, 37°C, xylose-induced); wt extract as control; 4°C, 1 h; washes with up to 500 mM NaCl; nLC-MS/MS with label-free quantification).
T1 sequence: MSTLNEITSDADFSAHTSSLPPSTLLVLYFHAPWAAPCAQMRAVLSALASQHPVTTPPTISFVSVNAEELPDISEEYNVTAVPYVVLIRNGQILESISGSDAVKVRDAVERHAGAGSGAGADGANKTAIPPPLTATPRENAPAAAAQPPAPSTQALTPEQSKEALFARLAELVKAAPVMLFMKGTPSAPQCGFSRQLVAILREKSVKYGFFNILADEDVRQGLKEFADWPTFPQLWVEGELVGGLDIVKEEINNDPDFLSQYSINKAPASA

Substance | binding
Pmt1 (protein O-mannosyltransferase) (from UniProt Q4WWN0) | binds
FlbA (developmental regulator) (from UniProt Q4X152) | binds
Afu3g04110 (putative snoRNA binding protein) (from UniProt Q4WEY6) | binds
Nbp35 (CIA machinery) (from UniProt Q4WZS2) | binds
Afu5g01440 (putative peroxiredoxin) (from UniProt Q4WE17) | binds
Afu4g10100 (putative methionine synthase reductase) | binds
Afu2g09100 (putative polyadenylation factor subunit) (from UniProt Q4X1Q9) | binds
HapX (iron responsive transcription factor) (from UniProt Q4WER3 1-491) | binds
Afu2g11740 (putative ATP-dependent peptidase) (from UniProt Q4X0Z7) | binds
Afu5g04210 (putative ubiquinol-cytochrome C reductase complex core protein 2) | binds
Afu4g14380 (putative glutathione S-transferase) (from UniProt Q4WQX8) | binds
Afu7g03980 (putative translation initiation factor eIF3m) (from UniProt Q4WG69) | binds

Second part, the substance after the results:

binding | Substance
binds | Afu1g09170 (putative protein kinase activator) (from UniProt Q4WTI6)
binds | CodA (choline oxidase) (from UniProt Q4WCK6)
binds | Afu1g08840 (putative guanylate kinase) (from UniProt Q4WTL9)
binds | Nhp6 (non-histone chromosomal protein) (from UniProt Q4WY33)
binds | Adh1 (alcohol dehydrogenase) (from UniProt Q4WAE4)
binds | Afu1g04660 (putative ribosomal protein L15)
binds | Afu2g11540 (putative ketoreductase) (from UniProt Q4X117)
binds | Mms19 (CIA machinery) (from UniProt Q4WC83)
binds | Afu5g12190 (putative transcription initiation factor subunit) (from UniProt Q4WVI2)
